# Test results taken from patent US10570179B2, “Substituted urea depsipeptide analogs as activators of the CLPP endopeptidase” (priority 2016, dated 2020).
# At least one structure is not confirmed: it was looked up by name or label, or the drawing left a doubt. Numbered stars: 1 amine (or outer) side, 2 acyl side, 3 side chain; on linkers, the order of the positions; unused ones are H or OH. Bridge positions count the residues as written; N and C are the ends. Square brackets hold non-standard residues; d marks the D form. Peptide text beside a SMILES is read from it. * marks the point of attachment. Phe(3-Me) = Cc1cccc(C[C@H](N)C(=O)O)c1; Hyp = O=C(O)[C@@H]1C[C@@H](O)CN1; NH(3-Cl-phenyl) = Clc1cccc(N*)c1; NH(4-Cl-phenyl) = Clc1ccc(N*)cc1; aThr = C[C@H](O)[C@H](N)C(=O)O; Pip = O=C(O)[C@@H]1CCCCN1; CO = O=C([*:1])[*:2]
# Test system: S. aureus ΔClpP
# Test: Minimal inhibitory concentration, microbroth dilution
# Assay type: cell-based, Staphylococcus aureus
# Details: MIC; ClpP inactivated
# Method: Minimal inhibitory concentrations (“MICs”) were determined using the microbroth dilution method according to Clinical Laboratory Standards Institute (CLSI; National, C.F. C. L. S., Methods for Dilution Antimicrobial Susceptibility Tests for Bacteria Grow aerobically-Seventh Edition: Approved Standard M7-A7, CLSI, Wayne, Pa., USA, 2008) and were read by visual inspection. Two fold serial dilutions of test compound in 100 μL of the appropriate broth media were first prepared in 96-well round bottom microtiter plates (Nalgene Nunc International, Rochester, N.Y., USA). An equivalent volume (100 μL) of bacterial broth inocula containing approximately 10^5 bacterial cfu/mL was added to each well to give final concentrations of test compound starting at 200 μM. The plates were then incubated aerobically at 37° C. All strains were incubated overnight. After incubations, in all cases the MIC was recorded as the lowest concentration of drug that prevented bacterial growth. The bacterial strains for which MIC was determined as described in Table 4.
row,Compound,Minimal Inhibitory Concentrations (μM) S. aureus ΔClpP
1,"Cc1cccc(C[C@H](NC(=O)Nc2ccc(Cl)cc2F)C(=O)N[C@H]2COC(=O)[C@@H]3CCCN3C(=O)[C@H](C)NC(=O)[C@@H]3CCCCN3C(=O)[C@@H]3C[C@@H](O)CN3C2=O)c1 [Compound 48, (S)-2-(3-(4-CHLORO-2-FLUOROPHENYL)UREIDO)-N-((6S,8AS,14AS,16R,20S,23AS)-16-HYDROXY-6-METHYL-5,8,14,19,23-PENTAOXOOCTADECAHYDRO-1H,5H,14H,19H-PYRIDO[2,1-I]DIPYRROLO[2,1-C:2′,1′-L][1]OXA[4,7,10,13]TETRAAZACYCLOHEXADECIN-20-YL)-3-(M-TOLYL)PROPANAMIDE]",>20 µM
2,"Cc1cccc(C[C@H](NC(=O)Nc2ccc(Cl)cc2)C(=O)N[C@@H]2C(=O)N3C[C@H](O)C[C@H]3C(=O)N3CCCC[C@H]3C(=O)N[C@@H](C)C(=O)N3CCC[C@H]3C(=O)O[C@H]2C)c1 [Compound 59, (S)-2-(3-(4-CHLOROPHENYL)UREIDO)-N-((6S,8AS,14AS,16R,20S,21S,23AS)-16-HYDROXY-6,21-DIMETHYL-5,8,14,19,23-PENTAOXOOCTADECAHYDRO-1H,5H,14H,19H-PYRIDO[2,1-I]DIPYRROLO[2,1-C:2′,1′-L][1]OXA[4,7,10,13]TETRAAZACYCLOHEXADECIN-20-YL)-3-(M-TOLYL)PROPANAMIDE] ({NH(4-Cl-phenyl)-CO}-[Phe(3-Me)][aThr][Hyp][Pip]AP; ester 2-C)",>20 µM
3,"Cc1cccc(C[C@H](NC(=O)Nc2cccc(Cl)c2)C(=O)N[C@@H]2C(=O)N3C[C@H](O)C[C@H]3C(=O)N3CCCC[C@H]3C(=O)N[C@@H](C)C(=O)N3CCC[C@H]3C(=O)O[C@H]2C)c1 [Compound 60, (S)-2-(3-(3-CHLOROPHENYL)UREIDO)-N-((6S,8AS,14AS,16R,20S,21S,23AS)-16-HYDROXY-6,21-DIMETHYL-5,8,14,19,23-PENTAOXOOCTADECAHYDRO-1H,5H,14H,19H-PYRIDO[2,1-I]DIPYRROLO[2,1-C:2′,1′-L][1]OXA[4,7,10,13]TETRAAZACYCLOHEXADECIN-20-YL)-3-(M-TOLYL)PROPANAMIDE] ({NH(3-Cl-phenyl)-CO}-[Phe(3-Me)][aThr][Hyp][Pip]AP; ester 2-C)",>20 µM
